Measurements from PubChem BioAssay AID493014 (National Center for Advancing Translational Sciences (NCATS), 2011).
The list shows a part of the results. These are further read-outs of the screen, such as a control signal, another cell line or another target. No call is given for them. Most of these compounds were active or inconclusive in the main read-out, so they are no random draw. Potencies come from curve fits of mixed quality, noted in brackets.

Assay: qHTS Assay to Find Inhibitors of Chronic Active B-Cell Receptor Signaling
Settings: ABC-DLBCL IkBa-CBG/CBR reporter, luminescence ratio (green luciferase fused to IkBa over red control in TMD8 lymphoma cells), 4 h
How it was run: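 Cell line TMD8 (human ABC DLBCL), stably expressing tet-inducible CBG68-IkBa fusion and CBR; IMDM/0.5% FBS; cpd up to 46 uM; dox induction, 4 h, 37C/5% CO2; dual luminescence; green/red ratio; MG132 control.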

[1] = measured here: CBR red luminescence, cell number
[2] = measured here: IkBa-CBG green luminescence

SMILES	AC50 [1]	AC50 [2]
O=C(CCc1ccccc1)Nc1ccc(NS(=O)(=O)c2ccccc2)cc1	3.98 µM [rising, full curve, poor fit]	
CC(=O)Cc1nsc(NC(=O)c2cc(-c3ccc(Cl)c(Cl)c3)oc2C)n1	1.41 µM [rising, full curve, poor fit]	
CCN(c1cccc(C)c1)S(=O)(=O)c1ccc(-c2cc(C)no2)s1	12.6 µM [rising, partial curve, poor fit]	12.6 µM [falling, partial curve]
O=C(COc1ccc([N+](=O)[O-])cc1)Nc1ccc2c(c1)nc1n2CCOC1	3.16 µM [rising, partial curve, poor fit]	
Cc1cccc(NS(=O)(=O)c2cnc(Cl)c(Br)c2)n1		23.1 µM [rising, single point]
Cc1cc(C)cc(-n2c(C)cc(/C=N/NC(=O)c3cccc([N+](=O)[O-])c3C)c2C)c1	32.6 µM [falling, single point]	
O=C(Nc1ccnn1C1CCN(Cc2ccc(O)c(Cl)c2)CC1)C1CCCC1	12.6 µM [rising, partial curve, poor fit]	
CN(C(=O)c1ccc2nccnc2c1)C1CCCCC1	35.5 µM [falling, single point]	
Cc1c(C#N)c(O)n(CCO)c(=O)c1N=Nc1ccc2c(c1)COC2=O	35.5 µM [rising, single point]	
Cc1csc(NC(=O)CSc2ncnc3c2cnn3-c2ccccc2Cl)n1	25.9 µM [falling, partial curve]	
COc1ccc(NC(=O)COC(=O)CN2C(=O)C3CC=CCC3C2=O)c([N+](=O)[O-])c1 (stereo not drawn)	23.1 µM [rising, single point]	
Cc1cc(NC(=O)c2cncc(Br)c2)no1	31.6 µM [falling, single point]	
Cc1c(Cl)cccc1Nc1ncccc1C(=O)OCC(O)CO (stereo not drawn)	1.12 µM [rising, full curve, poor fit]	
COc1ccc(/C=N/NC(=O)c2nonc2N)cc1OC	12.6 µM [rising, partial curve, poor fit]	
CCN(CC)CCC(c1cc(OC)c(OC)c(OC)c1)c1c(OC)cc(OC)c2c(-c3ccccc3)cc(=O)oc12 (stereo not drawn)	35.5 µM [falling, single point]	
COCC(=O)N1CCC(Oc2ccc(C(=O)NCCc3ccncc3)cc2)CC1	4.47 µM [rising, partial curve, poor fit]	
Cn1cc(CNCc2ccccc2OCC(O)CN2CCc3ccccc3C2)cn1 (stereo not drawn)	35.5 µM [falling, single point]	

Part of the list above in order of heavy-atom count, falling:
SMILES	AC50 [1]	AC50 [2]
COCC(=O)N1CCC(Oc2ccc(C(=O)NCCc3ccncc3)cc2)CC1	4.47 µM [rising, partial curve, poor fit]	
O=C(CCc1ccccc1)Nc1ccc(NS(=O)(=O)c2ccccc2)cc1	3.98 µM [rising, full curve, poor fit]	
COc1ccc(/C=N/NC(=O)c2nonc2N)cc1OC	12.6 µM [rising, partial curve, poor fit]	
